# Percent effect of library compounds

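Whole-parasite assay of Trypanosoma brucei over 72 hours; the read-out is not stated. Tested at 10 µM. Higher reads as stronger inhibition (inferred: compounds with an IC50 in retests scored well above the rest). Values scatter widely below zero; nearly all retest evidence comes from the higher of the two concentrations used. Of about 2,700 compounds tested this way, about 14 (0.51%) reached 50% or more in at least one test.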

Results are given as percent effect.
The controls that fix the scale are not given in the record; negative values are as filed.
The compounds are a random part of those screened.

SMILES,percent effect
Cc1cc(C)n(C2CCCN(C(=O)Cc3cccc(F)c3)C2)n1 (stereo not drawn),-3.742%
CN(CC(=O)NC1(C)CCS(=O)(=O)C1)Cc1ccc(Br)cc1 (stereo not drawn),-11.52%
Cc1cnn(CC2CN(Cc3ccccn3)CCO2)c1 (stereo not drawn),-28.26%
Cc1cc(C)n(C2CCCN(C(=O)Cc3cccs3)C2)n1 (stereo not drawn),17%
O=C(O)c1cc(S(=O)(=O)Nc2ccccc2)cc2c1OCCO2,-13.4%
CCn1ccnc1CN1CCOC(Cn2cccn2)C1 (stereo not drawn),-38.93%
CC(Cn1cccn1)NC(=O)Nc1ccccn1 (stereo not drawn),-28.67%
CC(=O)c1cccc(OCC(=O)NS(=O)(=O)c2cccs2)c1,-3.335%
Cc1cc(NC(=O)NCC(O)c2ccc(F)cc2)n(C)n1 (stereo not drawn),-66.29%
CN(Cc1ccco1)C(=O)C1CSCN1C(=O)C1CCC1 (stereo not drawn),-51.31%
CC(C)CNC(=O)c1cccc(CN2CCc3c(ncn3C)C2)c1,-14.57%
CCN(CC)CC(=O)N(C)C(c1cccc(F)c1)c1ccccn1 (stereo not drawn),-31.94%
CCc1nc(CN(C)CC(N)=O)cs1,-4.261%
c1ccc(OCCCN2CCOC(CNc3cccnn3)C2)cc1 (stereo not drawn),-39.47%
CCc1noc(C(C)N2CCN(C(=O)CN3CCOCC3)CC2)n1 (stereo not drawn),-11.35%
Cc1nc(CN(C)C2CCN(CCc3ccccn3)C2)no1 (stereo not drawn),-34.9%
Cc1nnc(NC(=O)NCc2ccc(N3CCC(C)CC3)nc2)s1,-38.76%
Cc1ccc(C(=O)N(C2CC2)C2CC(=O)NC2=O)cc1F (stereo not drawn),-10.42%
Cc1cccc(C(=O)N2CCCCC2c2nc(C)cs2)n1 (stereo not drawn),-46.52%
COCCN1CCN(Cc2cccc(C(=O)N(C)C)c2)CC1,-5.087%
CCn1cc(CN2CCCN(C(=O)c3ccccc3OC)CC2)cn1,-32.74%
Cc1cc(CN(C)C(=O)c2ccc(OCC(F)(F)F)nc2)no1,-17.65%
CCOc1cc(C)nc(N2CCN(C(=O)c3cn[nH]c3CC)CC2)n1,-5.236%
CC(Cn1cccn1)NC(=O)c1cccs1 (stereo not drawn),-23.53%
CS(=O)(=O)NC1CCCN(C(=O)c2cccnc2)C1 (stereo not drawn),-51.06%
Cc1cccc(OCCN2CCN(Cc3cnn(CCO)c3)CC2)c1,-43.28%
Cc1cc(C)n(CC2CN(Cc3nc(C)c(C)o3)CCO2)n1 (stereo not drawn),-43.61%
CCn1cnnc1CNC(=O)c1cc(Cl)c(I)cc1OC,-19.14%
Cc1nccn1C1CCCN(C(=O)c2cccc(OCC(N)=O)c2)C1 (stereo not drawn),-30%
Cc1cc(C)n(CC2CN(CC(=O)NCc3ccccn3)CCO2)n1 (stereo not drawn),-42.11%
Cc1ccc(-c2nc(CN3CCOC(Cn4cccn4)C3)no2)cc1 (stereo not drawn),24.53%
CC(Cc1ccco1)NC(=O)Nc1cccnc1 (stereo not drawn),-34.78%
O=C(NCCC(=O)N1CCCCCCC1)c1ccoc1,-38.74%
Cc1cnn(CC2CCCN2C(=O)c2ccc(F)cc2Cl)c1 (stereo not drawn),-43.16%
CN(Cc1noc(C2CC2)n1)C1CCN(CCc2cccs2)C1 (stereo not drawn),-39.04%
CCOc1ccc(OCCN2CCC(N3CCNC3=O)CC2)cc1,-25.45%
Cc1csc(CNC(=O)NC(C)c2ccc3c(c2)CCC(=O)N3)n1 (stereo not drawn),-28.73%
CN(C)c1ncccc1CNS(=O)(=O)c1ccc(F)c(F)c1,-18.71%
Cc1cc(NC(=O)NCC(O)c2ccc(F)c(F)c2)n(C)n1 (stereo not drawn),-16.89%
Cc1nn(C)c(C)c1C1CCCN1Cc1nc2ccccc2o1 (stereo not drawn),-54.99%
Cc1ccc(CN(C)C(=O)CN2CCCC(Cn3cncn3)C2)o1 (stereo not drawn),-24.18%
CCn1ccnc1CN1CCN(Cc2cc(C#N)ccc2F)CC1,-54.32%
CSCc1ccc(C(=O)NCCCNc2ccc(C(F)(F)F)cn2)cc1,17.16%
Cc1cc(C)n(CC2CN(Cc3nc(C4CC4)no3)CCO2)n1 (stereo not drawn),-51.79%
c1cnn(CC2CCCCN2Cc2nc(-c3ccoc3)no2)c1 (stereo not drawn),-54.19%
c1ccc(Cc2nc(CN3CCCC3Cn3cncn3)cs2)cc1 (stereo not drawn),-11.05%

The last 5 entries again:

| SMILES | percent effect |
|---|---|
| `CCn1ccnc1CN1CCN(Cc2cc(C#N)ccc2F)CC1` | -54.32% |
| `CSCc1ccc(C(=O)NCCCNc2ccc(C(F)(F)F)cn2)cc1` | 17.16% |
| `Cc1cc(C)n(CC2CN(Cc3nc(C4CC4)no3)CCO2)n1` (stereo not drawn) | -51.79% |
| `c1cnn(CC2CCCCN2Cc2nc(-c3ccoc3)no2)c1` (stereo not drawn) | -54.19% |
| `c1ccc(Cc2nc(CN3CCCC3Cn3cncn3)cs2)cc1` (stereo not drawn) | -11.05% |

The values are deposited in ChEMBL (CHEMBL3988442, “University of Dundee, Small-Polar-MMV Screening Library” (2021)).